The target in the assay is endogenous Act1 (HeLa cells) (human (endogenous in HeLa)) (UniProt O43734). Kind of assay: affinity purification with mass spectrometry; endogenous Act1 immunoprecipitated from lysates of HeLa cells treated with IL-17; co-precipitated proteins found by LC-MS/MS.

Protein sequences, listed by entry. Tags and fused reporters are not part of them. Residues count along the entry.
UniProt O43734: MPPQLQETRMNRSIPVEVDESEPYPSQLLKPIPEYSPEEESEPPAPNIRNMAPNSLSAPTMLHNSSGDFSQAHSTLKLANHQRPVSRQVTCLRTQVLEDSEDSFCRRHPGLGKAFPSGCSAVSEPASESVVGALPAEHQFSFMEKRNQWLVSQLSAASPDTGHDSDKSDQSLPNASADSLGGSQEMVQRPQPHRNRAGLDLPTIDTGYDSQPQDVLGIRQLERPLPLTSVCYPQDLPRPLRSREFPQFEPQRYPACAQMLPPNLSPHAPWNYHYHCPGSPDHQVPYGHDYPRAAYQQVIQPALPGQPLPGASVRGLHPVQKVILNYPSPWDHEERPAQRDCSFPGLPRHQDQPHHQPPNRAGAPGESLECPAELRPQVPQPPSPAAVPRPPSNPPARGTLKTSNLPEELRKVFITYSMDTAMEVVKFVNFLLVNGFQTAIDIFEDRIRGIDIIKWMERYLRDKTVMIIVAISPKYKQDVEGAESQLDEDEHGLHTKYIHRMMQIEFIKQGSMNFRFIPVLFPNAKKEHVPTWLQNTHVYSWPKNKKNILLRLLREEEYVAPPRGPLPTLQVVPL
UniProt Q9UM47, residues 40-2321: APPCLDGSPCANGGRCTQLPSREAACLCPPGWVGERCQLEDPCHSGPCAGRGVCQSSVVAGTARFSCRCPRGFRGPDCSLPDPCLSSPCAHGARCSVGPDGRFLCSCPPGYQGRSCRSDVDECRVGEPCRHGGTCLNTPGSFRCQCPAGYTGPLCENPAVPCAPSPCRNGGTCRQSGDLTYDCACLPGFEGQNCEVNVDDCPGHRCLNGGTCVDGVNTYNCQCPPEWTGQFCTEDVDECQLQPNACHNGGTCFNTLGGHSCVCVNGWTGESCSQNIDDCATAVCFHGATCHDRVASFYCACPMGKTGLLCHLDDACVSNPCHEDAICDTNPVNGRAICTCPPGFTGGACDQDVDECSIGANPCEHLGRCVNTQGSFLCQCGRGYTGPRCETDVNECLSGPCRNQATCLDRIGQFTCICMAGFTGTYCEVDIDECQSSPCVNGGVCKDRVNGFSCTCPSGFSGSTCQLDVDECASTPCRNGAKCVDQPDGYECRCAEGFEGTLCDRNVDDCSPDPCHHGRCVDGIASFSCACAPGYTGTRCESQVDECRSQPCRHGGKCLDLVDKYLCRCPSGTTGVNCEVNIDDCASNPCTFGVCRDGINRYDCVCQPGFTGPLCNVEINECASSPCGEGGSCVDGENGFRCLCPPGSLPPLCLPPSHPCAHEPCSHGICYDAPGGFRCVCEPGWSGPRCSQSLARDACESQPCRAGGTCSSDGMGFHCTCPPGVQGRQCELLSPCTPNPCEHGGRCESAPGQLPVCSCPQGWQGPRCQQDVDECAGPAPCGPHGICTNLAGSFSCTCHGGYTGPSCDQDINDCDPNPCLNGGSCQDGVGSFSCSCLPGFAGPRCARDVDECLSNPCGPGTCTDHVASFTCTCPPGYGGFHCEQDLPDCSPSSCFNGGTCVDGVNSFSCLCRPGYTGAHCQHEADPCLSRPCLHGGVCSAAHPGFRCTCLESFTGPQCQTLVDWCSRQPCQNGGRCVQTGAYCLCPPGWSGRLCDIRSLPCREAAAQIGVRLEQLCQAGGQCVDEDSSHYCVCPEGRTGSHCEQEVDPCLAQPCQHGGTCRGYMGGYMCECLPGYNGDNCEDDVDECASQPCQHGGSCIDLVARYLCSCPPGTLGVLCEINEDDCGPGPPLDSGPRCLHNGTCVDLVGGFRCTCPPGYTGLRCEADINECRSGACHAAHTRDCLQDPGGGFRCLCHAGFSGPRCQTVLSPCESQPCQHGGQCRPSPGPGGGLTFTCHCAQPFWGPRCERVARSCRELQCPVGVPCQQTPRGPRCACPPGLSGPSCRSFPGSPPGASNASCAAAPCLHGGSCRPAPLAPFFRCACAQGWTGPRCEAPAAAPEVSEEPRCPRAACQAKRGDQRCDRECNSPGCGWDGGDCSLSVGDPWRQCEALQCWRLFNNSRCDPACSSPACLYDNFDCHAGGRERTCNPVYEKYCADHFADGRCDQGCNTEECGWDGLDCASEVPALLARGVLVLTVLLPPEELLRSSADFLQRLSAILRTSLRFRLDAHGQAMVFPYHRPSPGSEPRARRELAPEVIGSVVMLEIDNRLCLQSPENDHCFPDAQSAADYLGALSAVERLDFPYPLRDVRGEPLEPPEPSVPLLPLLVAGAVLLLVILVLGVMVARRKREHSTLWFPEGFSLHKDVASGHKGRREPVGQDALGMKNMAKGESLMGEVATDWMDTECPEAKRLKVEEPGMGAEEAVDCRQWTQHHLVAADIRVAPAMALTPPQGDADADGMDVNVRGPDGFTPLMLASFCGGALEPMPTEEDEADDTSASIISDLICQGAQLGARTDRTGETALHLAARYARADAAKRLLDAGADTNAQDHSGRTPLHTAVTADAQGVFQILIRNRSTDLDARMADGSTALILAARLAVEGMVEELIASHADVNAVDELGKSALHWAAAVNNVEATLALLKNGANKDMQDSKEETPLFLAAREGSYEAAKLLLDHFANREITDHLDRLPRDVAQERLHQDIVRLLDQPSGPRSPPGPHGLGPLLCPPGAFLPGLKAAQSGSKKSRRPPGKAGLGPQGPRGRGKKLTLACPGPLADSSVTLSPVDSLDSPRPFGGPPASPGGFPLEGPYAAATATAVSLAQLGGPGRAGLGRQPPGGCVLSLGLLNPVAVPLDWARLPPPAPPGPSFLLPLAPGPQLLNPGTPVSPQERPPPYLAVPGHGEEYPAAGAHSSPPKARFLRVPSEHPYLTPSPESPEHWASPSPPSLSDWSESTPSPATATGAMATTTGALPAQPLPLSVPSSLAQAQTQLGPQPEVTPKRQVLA
UniProt P46531, residues 19-2555: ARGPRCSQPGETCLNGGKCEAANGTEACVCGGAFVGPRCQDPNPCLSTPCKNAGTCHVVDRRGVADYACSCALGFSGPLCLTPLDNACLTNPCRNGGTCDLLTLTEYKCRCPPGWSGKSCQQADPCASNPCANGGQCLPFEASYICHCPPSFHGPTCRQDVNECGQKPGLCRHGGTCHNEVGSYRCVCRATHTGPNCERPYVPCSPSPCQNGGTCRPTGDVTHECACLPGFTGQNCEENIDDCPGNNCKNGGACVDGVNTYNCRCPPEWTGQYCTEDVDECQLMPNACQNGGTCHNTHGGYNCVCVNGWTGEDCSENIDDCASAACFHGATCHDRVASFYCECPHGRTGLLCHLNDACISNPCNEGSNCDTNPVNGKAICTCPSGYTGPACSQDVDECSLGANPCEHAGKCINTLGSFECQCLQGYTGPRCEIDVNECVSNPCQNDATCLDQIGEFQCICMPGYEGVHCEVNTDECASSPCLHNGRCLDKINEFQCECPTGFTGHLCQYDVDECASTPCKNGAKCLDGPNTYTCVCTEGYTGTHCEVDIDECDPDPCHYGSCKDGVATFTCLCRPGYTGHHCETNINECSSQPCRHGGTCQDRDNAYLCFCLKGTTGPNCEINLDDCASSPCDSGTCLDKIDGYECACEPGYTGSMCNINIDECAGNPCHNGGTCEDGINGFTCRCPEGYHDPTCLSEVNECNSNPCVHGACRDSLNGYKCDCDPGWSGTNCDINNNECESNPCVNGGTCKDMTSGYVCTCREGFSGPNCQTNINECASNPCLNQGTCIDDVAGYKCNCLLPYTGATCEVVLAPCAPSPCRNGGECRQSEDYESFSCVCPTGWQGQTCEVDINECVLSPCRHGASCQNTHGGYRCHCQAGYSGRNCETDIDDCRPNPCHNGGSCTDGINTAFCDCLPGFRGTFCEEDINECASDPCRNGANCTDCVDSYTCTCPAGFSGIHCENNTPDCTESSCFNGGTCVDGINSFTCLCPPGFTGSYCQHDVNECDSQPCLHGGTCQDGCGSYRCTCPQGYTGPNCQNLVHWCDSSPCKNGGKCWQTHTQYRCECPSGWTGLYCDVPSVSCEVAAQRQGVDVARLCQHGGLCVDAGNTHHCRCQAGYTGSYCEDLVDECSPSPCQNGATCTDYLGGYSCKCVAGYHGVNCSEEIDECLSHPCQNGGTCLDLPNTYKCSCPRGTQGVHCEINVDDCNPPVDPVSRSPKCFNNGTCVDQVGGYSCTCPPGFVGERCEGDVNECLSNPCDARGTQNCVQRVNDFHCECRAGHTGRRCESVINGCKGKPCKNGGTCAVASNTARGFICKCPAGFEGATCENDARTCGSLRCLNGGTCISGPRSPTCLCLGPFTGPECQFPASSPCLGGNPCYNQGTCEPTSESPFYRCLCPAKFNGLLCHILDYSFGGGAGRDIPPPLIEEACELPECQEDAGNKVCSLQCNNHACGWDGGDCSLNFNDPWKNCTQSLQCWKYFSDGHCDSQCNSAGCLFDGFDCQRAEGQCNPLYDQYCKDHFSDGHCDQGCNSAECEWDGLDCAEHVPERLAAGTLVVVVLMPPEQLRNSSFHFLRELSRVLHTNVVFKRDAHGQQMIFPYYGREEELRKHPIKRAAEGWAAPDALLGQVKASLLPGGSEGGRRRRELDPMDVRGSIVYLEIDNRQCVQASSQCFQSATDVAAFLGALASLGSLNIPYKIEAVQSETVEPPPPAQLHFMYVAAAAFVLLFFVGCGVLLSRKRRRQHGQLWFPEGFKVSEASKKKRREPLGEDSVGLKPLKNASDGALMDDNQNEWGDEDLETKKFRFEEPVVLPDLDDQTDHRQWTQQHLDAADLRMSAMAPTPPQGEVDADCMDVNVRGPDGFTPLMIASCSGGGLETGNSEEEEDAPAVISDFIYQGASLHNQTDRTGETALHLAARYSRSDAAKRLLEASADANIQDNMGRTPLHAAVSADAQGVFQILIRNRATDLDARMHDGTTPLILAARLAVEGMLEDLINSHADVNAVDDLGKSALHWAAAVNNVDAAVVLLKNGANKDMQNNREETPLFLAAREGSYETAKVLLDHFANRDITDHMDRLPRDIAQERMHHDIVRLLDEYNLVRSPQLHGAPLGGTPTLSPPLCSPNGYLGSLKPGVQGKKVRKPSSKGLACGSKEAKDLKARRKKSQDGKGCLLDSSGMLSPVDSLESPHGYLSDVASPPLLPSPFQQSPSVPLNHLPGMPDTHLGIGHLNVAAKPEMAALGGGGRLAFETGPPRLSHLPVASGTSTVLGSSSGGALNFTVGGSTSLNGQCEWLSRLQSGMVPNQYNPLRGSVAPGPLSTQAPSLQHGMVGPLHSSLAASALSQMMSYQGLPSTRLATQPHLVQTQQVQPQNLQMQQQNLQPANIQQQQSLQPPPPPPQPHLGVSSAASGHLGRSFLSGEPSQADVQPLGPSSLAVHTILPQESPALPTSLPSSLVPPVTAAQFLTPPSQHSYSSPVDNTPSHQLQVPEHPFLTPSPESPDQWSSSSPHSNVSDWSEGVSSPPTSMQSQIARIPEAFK

No constants are given. Whether binding was seen depends on the method and setting. In cells and extracts the contact can be indirect. These calls come from enrichment with a bait or labelling near it, and not all partners need be listed.

Turning to “NOTCH3 (endogenous, HeLa cells) (from UniProt Q9UM47 40-2321) (receptor)”, the binding result is “binds”.
“NOTCH2 (endogenous, HeLa cells) (from UniProt Q04721 26-2471) (receptor)”: the binding entry is listed as “binds”.
“NOTCH1 (endogenous, HeLa cells) (from UniProt P46531 19-2555) (receptor)”: the binding result was “binds”.

For the origin of these results see publication PMC5460031.
